Results are given in words; binding and its absence hold for the method and conditions named. Binding seen in cells or lysates may run through a third protein. Binding can be weak; no strength is given.
Molecular target: Warts with an N-terminal Myc tag (Myc-Wts) (Drosophila melanogaster)
Assay: co-IP; S2 cells co-transfected with the tagged constructs (pUAST vectors with ubiquitin-Gal4); cell extracts immunoprecipitated with anti-Flag or anti-Myc antibodies, Western blot

binding: binds
B1: Yorkie (Yki) (protein, UniProt Q45VV3 1-395)
chain: MLTTMSASSNTNSLIEKEIDDEDMLSPIKSNNLVVRVNQDTDDNLQALFDSVLNPGDAKRPLQLPLRMRKLPNSFFTPPAPSHSRANSADSTYDAGSQSSINIGNKASIVQQPDGQSPIAAIPQLQIQPSPQHSRLAIHHSRARSSPASLQQNYNVRARSDAAAANNPNANPSSQQQPAGPTFPENSAQEFPSGAPASSAIDLDAMNTCMSQDIPMSMQTVHKKQRSYDVISPIQLNRQLGALPPGWEQAKTNDGQIYYLNHTTKSTQWEDPRIQYRQQQQILMAERIKQNDVLQTTKQTTTSTIANNLGPLPDGWEQAVTESGDLYFINHIDRTTSWNDPRMQSGLSVLDCPDNLVSSLQIEDNLCSNLFNDAQAIVNPPSSHKPDDLEWYKIN

From paper PMC7299341
